Measurements from paper PMC12428246.
Results are given in words; binding and its absence hold for the method and conditions named. Binding seen in cells or lysates may run through a third protein. A yes stands for co-enrichment or nearness to the bait. Other partners may have been found. Where a sequence is shown, tags or fusion partners need not be part of it.

Chains of the proteins cited; added tags and fusions are not shown.
UniProt P98175: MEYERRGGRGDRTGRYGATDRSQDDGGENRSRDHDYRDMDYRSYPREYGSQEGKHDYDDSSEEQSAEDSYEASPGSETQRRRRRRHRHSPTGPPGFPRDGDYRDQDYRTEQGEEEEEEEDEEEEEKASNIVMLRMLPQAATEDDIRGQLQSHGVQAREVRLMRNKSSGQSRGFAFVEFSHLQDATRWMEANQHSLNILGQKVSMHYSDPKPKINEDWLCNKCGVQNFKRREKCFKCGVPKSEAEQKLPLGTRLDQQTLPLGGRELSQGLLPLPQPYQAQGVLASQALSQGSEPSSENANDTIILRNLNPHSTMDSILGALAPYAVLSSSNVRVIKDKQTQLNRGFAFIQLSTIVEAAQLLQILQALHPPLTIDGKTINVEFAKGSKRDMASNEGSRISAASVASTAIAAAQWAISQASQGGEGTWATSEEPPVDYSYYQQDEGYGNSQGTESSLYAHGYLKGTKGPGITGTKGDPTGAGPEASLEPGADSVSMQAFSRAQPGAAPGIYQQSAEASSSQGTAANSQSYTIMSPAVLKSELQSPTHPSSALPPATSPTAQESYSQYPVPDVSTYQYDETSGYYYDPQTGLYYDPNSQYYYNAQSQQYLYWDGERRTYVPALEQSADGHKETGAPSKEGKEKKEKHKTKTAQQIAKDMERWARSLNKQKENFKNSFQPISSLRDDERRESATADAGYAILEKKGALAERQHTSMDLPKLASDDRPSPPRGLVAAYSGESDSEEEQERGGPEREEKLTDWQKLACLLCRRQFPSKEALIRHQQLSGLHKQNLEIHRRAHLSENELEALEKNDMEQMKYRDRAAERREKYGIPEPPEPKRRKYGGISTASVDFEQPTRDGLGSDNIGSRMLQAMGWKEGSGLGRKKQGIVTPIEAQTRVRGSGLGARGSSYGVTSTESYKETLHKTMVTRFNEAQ

T1: MP60, 60-amino-acid micropeptide encoded by LINC01138 (ENST00000614292), Flag knock-in (human (endogenous in 293T))
T1 sequence: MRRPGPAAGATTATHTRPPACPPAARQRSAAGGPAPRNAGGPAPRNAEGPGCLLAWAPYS


Target: T1, MP60, 60-amino-acid micropeptide encoded by LINC01138 (ENST00000614292), Flag knock-in (human (endogenous in 293T))
Assay: affinity purification with mass spectrometry; anti-Flag antibody co-immunoprecipitation from lysates of 293T-Flag-KI cells, LC-MS/MS of the precipitated complex

binding	Molecule
binds	RNA-binding motif protein 10 (RBM10) (from UniProt P98175 1-930)
binds	SRSF4 (protein, UniProt Q08170 1-494) MPRVYIGRLSYQARERDVERFFKGYGKILEVDLKNGYGFVEFDDLRDADDAVYELNGKDLCGERVIVEHARGPRRDGSYGSGRSGYGYRRSGRDKYGPPTRTEYRLIVENLSSRCSWQDLKDYMRQAGEVTYADAHKGRKNEGVIEFVSYSDMKRALEKLDGTEVNGRKIRLVEDKPGSRRRRSYSRSRSHSRSRSRSRHSRKSRSRSGSSKSSHSKSRSRSRSGSRSRSKSRSRSQSRSRSKKEKSRSPSKEKSRSRSHSAGKSRSKSKDQAEEKIQNNDNVGKPKSRSPSRHKSKSKSRSRSQERRVEEEKRGSVSRGRSQEKSLRQSRSRSRSKGGSRSRSRSRSKSKDKRKGRKRSREESRSRSRSRSKSERSRKRGSKRDSKAGSSKKKKKEDTDRSQSRSPSRSVSKEREHAKSESSQREGRGESENAGTNQETRSRSRSNSKSKPNLPSESRSRSKSASKTRSRSKSRSRSASRSPSRSRSRSHSRS
binds	SRSF8 (protein, UniProt Q9BRL6 1-282) MSCGRPPPDVDGMITLKVDNLTYRTSPDSLRRVFEKYGRVGDVYIPREPHTKAPRGFAFVRFHDRRDAQDAEAAMDGAELDGRELRVQVARYGRRDLPRSRQGEPRGRSRGGGYGRRSRSYGRRSRSPRRRHRSRSRGPSCSRSRSRSRYRGSRYSRSPYSRSPYSRSRYSRSPYSRSRYRESRYGGSHYSSSGYSNSRYSRYHSSRSHSKSGSSTSSRSASTSKSSSARRSKSSSVSRSRSRSRSSSMTRSPPRVSKRKSKSRSRSKRPPKSPEEEGQMSS
